Values quoted from earlier work in patent publication US20120329770A1, “CEPHALOSPORIN DERIVATIVES USEFUL AS BETA-LACTAMASE INHIBITORS AND COMPOSITIONS AND METHODS OF USE THEREOF” (priority 2010, published 2012).
Some of these results come from one statement about several compounds together.

By UniProt entry, the sequences of proteins in these tests, tags left out. Residues count along the entry.
UniProt P26918, 28-254: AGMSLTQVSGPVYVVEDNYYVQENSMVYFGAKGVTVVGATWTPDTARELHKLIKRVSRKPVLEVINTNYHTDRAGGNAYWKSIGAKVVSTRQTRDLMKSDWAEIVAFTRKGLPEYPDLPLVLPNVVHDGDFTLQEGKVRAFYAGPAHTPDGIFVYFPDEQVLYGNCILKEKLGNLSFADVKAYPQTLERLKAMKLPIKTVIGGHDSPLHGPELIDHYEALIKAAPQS

Molecular target: MBL CfiA (Aeromonas hydrophila, UniProt P26918)
Settings: irreversible, slow inhibition; cited from earlier work

Row | SMILES | concentration required for inhibition of CfiA
1 | CO[C@@]1(NC(=O)C(C(=O)O)c2ccc(O)cc2)C(=O)N2C(C(=O)O)=C(CSc3nnnn3C)CO[C@@H]21 (some centres unmarked) [moxalactam] | > 1 mM
2 | CO[C@@]1(NC(=O)Cc2cccs2)C(=O)N2C(C(=O)O)=C(COC(N)=O)CS[C@@H]21 [cefoxitin] | > 1 mM
